The record followed here is PMC6212833 (mBio, 2018).

Counter-ions that a name gives are not always drawn.

Series [1] deals with B. mandrillaris trophozoites. Kind of series: Nitroxoline structure-activity relationship dose response (CellTiter Glo). To be noted: 72 h, sigmoidal curve fit. The format is cell-based, Balamuthia mandrillaris. For orientation: ATP-based viability assays read luminescence as a measure of living cells.
The test system of series [2] is B. mandrillaris trophozoites. The format is cell-based, Balamuthia mandrillaris. As to conditions: 20 µM, 72 h.
The subject of series [3] is U87 (glial) cells. Put plainly: Cytotoxicity dose response, U87. Format: cell-based, human. To be noted: cell line CC50/B. mandrillaris trophozoite IC50. The procedure: (§1) B. mandrillaris trophozoites were seeded at 4,000 amoebae per well into opaque and clear-bottom 96-well plates (Corning). Homogenous populations of B. mandrillaris cysts generated by galactose induction were seeded at 4,000 amoebae per well into opaque 96-well plates. HFF-1 (fibroblast), H4 (glial), U87 (glial), HEK-293T (kidney), and Hep-G2 (liver) cells were seeded at 3,000 cells per well in opaque 96-well plates 24 h prior to addition of drug. Stocks of nitroxoline (Selleck Chemicals) were dissolved in 100% DMSO at 10 mM. Stocks of azithromycin (Selleck Chemicals), pentamidine isethionate (Selleck Chemicals), and miltefosine (Selleck Chemicals) were dissolved in water at 10 mM. Drug stocks were serially diluted in water to generate 12-point dilution series, which were then used to treat assay wells containing B. mandrillaris or human cells at final concentrations ranging from 0.39 µM to 400 µM in 100-µl total well volumes. Control wells were treated with vehicle (DMSO or water) at concentrations corresponding to the final vehicle concentrations in each drug dilution series. After incubation for 72 h, 50 µl of CTG was added to all assay wells. Luminescence was measured with a Promega GloMax-Multi+ plate reader 2, 4, and […] after CTG addition. All dose-response experiments were performed with at least three independent biological replicates. IC50 values were determined as previously described. To quantify encystment under treated and untreated conditions, amoebae in individual assay wells were resuspended thoroughly and the number of cysts and number of trophozoites in 10-µl samples were counted by the use of a hemocytometer (SKC, Inc.). Cysts and trophozoites are morphologically distinct, making them simple to distinguish with bright-field microscopy (example images are shown in Fig. S1 in the supplemental material). Encystment assays were performed with three independent biological replicates.

The subject of series [4] is HFF-1 (fibroblast) cells. Kind of series: Cytotoxicity dose response, HFF-1. The format is cell-based, human. As to conditions: cell line CC50/B. mandrillaris trophozoite IC50. As for the experimental part:
as §1

In series [5] the test system is H4 (glial) cells. Kind of series: Cytotoxicity dose response, H4. Format: cell-based, human. As to conditions: cell line CC50/B. mandrillaris trophozoite IC50. As for the experimental part:
as §1

The subject of series [6] is HEK-293T (kidney) cells. Kind of series: Cytotoxicity dose response, HEK-293T. To be noted: cell line CC50/B. mandrillaris trophozoite IC50. The format is cell-based, human. As for the experimental part: as §1
For series [7], the system named is U87, H4, HEK-293T, HFF-1 and Hep-G2 cell lines. Kind of series: Cytotoxicity, mean of all cell lines. Format: cell-based, human. To be noted: cell line CC50/B. mandrillaris trophozoite IC50. As for the experimental part:
as §1

Series [8] concerns Hep-G2 (liver) cells. Kind of series: Cytotoxicity dose response, Hep-G2. Format: cell-based, human. To be noted: cell line CC50/B. mandrillaris trophozoite IC50. The procedure:
as §1

`Oc1cccc2cccnc12` [compound 2, 8-Hydroxyquinoline]: the Hill slope in series [1] is recorded as 1.27.
In series [1], `O=[N+]([O-])c1cccc2ncccc12` [compound 3, 5-Nitroquinoline] showed a Hill slope of 0.93.
`CC#C[C@]1(O)CC[C@H]2[C@@H]3CCC4=CC(=O)CCC4=C3[C@@H](c3ccc(N(C)C)cc3)C[C@@]21C` [Mifepristone]: the B-score in series [2] amounted to 2.28.
As to `Oc1ccc(Br)c2cccnc12` [compound 6, 5-Bromo-8-hydroxyquinoline], the Hill slope in series [1] worked out at 3.35.
Compound `CNC(=C[N+](=O)[O-])NCCSCc1ccc(CN(C)C)o1` [Ranitidine] gave a B-score in series [2] of 14.55.
On the same count and under the same terms, the same measure for `Cc1c(NC(=O)c2cccnc2)c(=O)n(-c2ccccc2)n1C` [Nifenazone]: 12.46.
With `O=C(O)c1ccc2ccccc2n1` [compound 18, 2-Quinolinecarboxylic acid], the Hill slope in series [1] worked out at 1.28.
On to `C[n+]1c2cc(N)ccc2cc2ccc(N)cc21` [Acriflavinium Hydrochloride], for which the B-score in series [2] was determined as 20.40.
For `O=S(=O)(O)c1ccc(O)c2ncccc12` [compound 13, 8-Hydroxy-5-quinolinesulfonic acid], in series [1], the Hill slope turned out to be 1.21.
Turning to `CCCCCCCCCCCCCCCC[N+](C)(C)C` [Cetrimonium], in series [2], the B-score was 10.02.
Still for that read-out and setting: to `O=C(O)c1ccccc1-c1c2cc(I)c(=O)c(I)c-2oc2c(I)c(O)c(I)cc12` [Erythrosine Sodium] belongs 14.81.
As for `c1cnc2c(c1)ccc1cccnc12` [compound 14, 1,10-Phenanthroline], the Hill slope in series [1] came to 3.71.
For `CCCCCCCCCCCCCCCCOP(=O)([O-])OCC[N+](C)(C)C` [Miltefosine], in series [3], the “SI U87 cell line” value was 0.55. Also, the “SI HFF-1 cell line” value in series [4] stood at 1.10. For the same compound, in series [5], the “SI H4 cell line” value was found to be 0.15. Further, the “SI HEK-293T cell line” value in series [6] came to 1.21. Besides, the “SI mean of all cell lines” value in series [7] was 0.79. For the same compound, the “SI Hep-G2 cell line” value in series [8] is on record as 0.94.
`CC(C)c1c(C(=O)Nc2ccccc2)c(-c2ccccc2)c(-c2ccc(F)cc2)n1CC[C@@H](O)C[C@@H](O)CC(=O)O` [Atorvastatin] yielded a B-score in series [2] of 6.68.
Same read-out and setting: the same measure for `Oc1ccc(Cl)cc1Cc1cc(Cl)ccc1O` [Dichlorophene, Dichlorophen, Dichlorophene]: 5.34.
Still for that read-out and setting: the same measure for `C[CH2][Hg][S]c1ccccc1C(=O)O` [Ethylmercurithiosalicylic acid]: 19.75.
As for `N=C(N)c1ccc(OCCCCCOc2ccc(C(=N)N)cc2)cc1` [Pentamidine isethionate], in series [2], the B-score was determined as 15.21. In addition, the “SI U87 cell line” value in series [3] is 2.26. Further, the “SI H4 cell line” value in series [5] was determined as 0.63. Further, in series [6], the “SI HEK-293T cell line” value worked out at 0.52. Besides, in series [7], the “SI mean of all cell lines” value is 1.12.
`COCc1c(C(C)C)nc(C(C)C)c(/C=C/[C@@H](O)C[C@@H](O)CC(=O)O)c1-c1ccc(F)cc1` [Cerivastatin, Cerivastatin Na, Cerivastatin] had a B-score in series [2] of 13.33.
`CCCCC(CC)CNC(=N)NC(=N)NCCCCCCNC(=N)NC(=N)NCC(CC)CCCC` (stereo not shown) [Alexidine Hydrochloride] displayed a B-score in series [2] of 16.57.
On the same count and under the same terms, to `CC(=O)[O][Hg][c]1ccccc1` [Phenylmercuric Acetate] belongs 20.74.
In the case of `O=[N+]([O-])c1cnc2ccccc2c1O` [compound 19, 3-Nitro-4-quinolinol], the Hill slope in series [1] is 1.07.
In series [2], `Cc1cc(-c2ccc(/N=N/c3ccc4c(S(=O)(=O)O)cc(S(=O)(=O)O)c(N)c4c3O)c(C)c2)ccc1/N=N/c1ccc2c(S(=O)(=O)O)cc(S(=O)(=O)O)c(N)c2c1O` [Evans Blue] yielded a B-score of 10.99.
Same read-out and setting: to `CN(C)c1ccc(C(=C2C=CC(=[N+](C)C)C=C2)c2ccc(N(C)C)cc2)cc1` [Gentian Violet] belongs 9.22.
`Cc1ccc(O)c2ncccc12` [compound 7, 5-Methylquinolin-8-ol]: the Hill slope in series [1] worked out at 3.57.
`CO/N=C(\C(=O)N[C@@H]1C(=O)N2C(C(=O)O)=C(COC(N)=O)CS[C@H]12)c1ccco1` [Cefuroxime Sodium]: in series [2], the B-score is given as 2.50.
Same read-out and setting: the same measure for `CC[n+]1c(-c2ccccc2)c2cc(N)ccc2c2ccc(N)cc21` [Homidium Bromide]: 3.74; for `[H]/N=C(\N/C(=N/[H])NCCCCCCNC(=N)NC(=N)Nc1ccc(Cl)cc1)Nc1ccc(Cl)cc1` [Chlorhexidine]: 20.76.
The same measure, in the same setting: the same measure for `O=C(CCCCCCC(=O)Nc1ccccc1)NO` [Vorinostat]: 6.71.
Still for that read-out and setting: the same measure for `N=C(N)c1ccc(/N=N/Nc2ccc(C(=N)N)cc2)cc1` [Diminazene]: 9.37.
In series [2], `NC(=O)c1ccc[n+]([C@@H]2O[C@H](COP(=O)([O-])OP(=O)(O)OC[C@H]3O[C@@H](n4cnc5c(N)ncnc54)[C@H](O)[C@@H]3O)[C@@H](O)[C@H]2O)c1` [Nadide] returned a B-score of 15.71.
For the compound `CCOc1ccc([N+](=O)[O-])c2cccnc12` [compound 17, 8-Ethoxy-5-nitroquinoline], in series [1], the Hill slope is 1.37.
The compound `Cc1cc(N)c2ccccc2[n+]1CCCCCCCCCC[n+]1c(C)cc(N)c2ccccc21` [Dequadin] returned a B-score in series [2] of 13.04.
`NC(=O)NO` [Hydroxyurea] had a B-score in series [2] of 2.92.
Same read-out and setting: to `C=C1C[C@@H]2[C@H](CC[C@]3(C)C(=O)CC[C@@H]23)[C@@]2(C)C=CC(=O)C=C12` [Exemestane] belongs 7.82.
In the case of `CC[C@H]1OC(=O)[C@H](C)[C@@H](O[C@H]2C[C@@](C)(OC)[C@@H](O)[C@H](C)O2)[C@H](C)[C@@H](O[C@@H]2O[C@H](C)C[C@H](N(C)C)[C@H]2O)[C@](C)(O)C[C@@H](C)CN(C)[C@H](C)[C@@H](O)[C@]1(C)O` [Azithromycin], the “SI U87 cell line” value in series [3] was 0.21. Also, the “SI HFF-1 cell line” value in series [4] was found to be 0.47. For the same compound, in series [5], the “SI H4 cell line” value was 0.39. The “SI HEK-293T cell line” value in series [6] is 0.59. Also, the “SI mean of all cell lines” value in series [7] is reported as 0.39. In addition, the “SI Hep-G2 cell line” value in series [8] stood at 0.27.
In the case of `[O-][n+]1cccc2cccc(O)c21` [compound 16, 8-Quinolinol N-oxide], the Hill slope in series [1] is listed as 1.64.
In turn, `O=[N+]([O-])c1ccc(O)c2ncccc12` [Nitroxoline, 8-hydroxy-5-nitroquinoline] returned a B-score in series [2] of 23.18. Further, in series [3], the “SI U87 cell line” value is listed as 8.77. For the same compound, in series [4], the “SI HFF-1 cell line” value is given as 18.23. Besides, the “SI H4 cell line” value in series [5] was determined as 1.96. The same compound came in with a Hill slope in series [1] of 3.49. The “SI HEK-293T cell line” value in series [6] came out at 1.71. The “SI mean of all cell lines” value in series [7] stood at 6.79. The “SI Hep-G2 cell line” value in series [8] was 3.29.

The Hill slope is the slope factor of the fitted curve.
